{
  "sequences": {"note": "Chains of the proteins cited; added tags and fusions are not shown. Lines headed by an entry give the natural chain unless they say otherwise; changes in a name come on top.", "UniProt Q9Y294": "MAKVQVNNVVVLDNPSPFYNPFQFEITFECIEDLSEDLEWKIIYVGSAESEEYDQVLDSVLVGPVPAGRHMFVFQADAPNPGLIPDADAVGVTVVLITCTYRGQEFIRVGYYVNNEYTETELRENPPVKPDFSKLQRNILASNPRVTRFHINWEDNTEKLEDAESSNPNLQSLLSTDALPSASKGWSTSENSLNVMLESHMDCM", "UniProt Q504Q3": "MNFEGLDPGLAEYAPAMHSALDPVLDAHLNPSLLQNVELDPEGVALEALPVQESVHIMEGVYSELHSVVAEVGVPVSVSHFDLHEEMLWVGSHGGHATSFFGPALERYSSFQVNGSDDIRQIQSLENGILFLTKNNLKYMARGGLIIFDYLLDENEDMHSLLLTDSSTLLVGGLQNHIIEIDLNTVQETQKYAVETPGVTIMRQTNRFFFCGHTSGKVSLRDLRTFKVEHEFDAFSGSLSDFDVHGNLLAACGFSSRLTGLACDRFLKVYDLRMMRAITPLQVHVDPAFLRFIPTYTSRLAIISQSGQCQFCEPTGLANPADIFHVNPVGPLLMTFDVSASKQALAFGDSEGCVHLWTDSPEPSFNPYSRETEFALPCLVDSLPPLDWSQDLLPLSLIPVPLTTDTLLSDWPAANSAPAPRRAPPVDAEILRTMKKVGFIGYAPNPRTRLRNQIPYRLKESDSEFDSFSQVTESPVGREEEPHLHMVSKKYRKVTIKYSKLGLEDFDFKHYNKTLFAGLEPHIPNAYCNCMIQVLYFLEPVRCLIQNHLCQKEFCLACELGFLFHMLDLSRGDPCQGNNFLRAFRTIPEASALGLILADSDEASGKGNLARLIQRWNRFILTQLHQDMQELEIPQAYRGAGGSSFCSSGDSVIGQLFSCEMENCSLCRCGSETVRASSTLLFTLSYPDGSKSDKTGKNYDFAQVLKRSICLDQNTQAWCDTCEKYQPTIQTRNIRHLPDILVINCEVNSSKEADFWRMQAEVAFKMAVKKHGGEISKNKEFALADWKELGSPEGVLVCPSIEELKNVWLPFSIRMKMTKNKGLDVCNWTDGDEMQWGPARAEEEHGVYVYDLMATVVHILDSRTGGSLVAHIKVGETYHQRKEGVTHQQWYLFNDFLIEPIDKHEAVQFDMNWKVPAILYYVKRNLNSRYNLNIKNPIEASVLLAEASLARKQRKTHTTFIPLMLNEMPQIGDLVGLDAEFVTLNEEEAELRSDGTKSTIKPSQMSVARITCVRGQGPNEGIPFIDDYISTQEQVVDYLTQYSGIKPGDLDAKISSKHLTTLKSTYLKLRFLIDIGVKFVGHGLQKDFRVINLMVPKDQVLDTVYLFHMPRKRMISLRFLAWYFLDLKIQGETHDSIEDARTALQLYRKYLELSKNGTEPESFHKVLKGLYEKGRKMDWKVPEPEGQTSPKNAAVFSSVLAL"},
  "source": "paper PMC5876348",
  "biological_target": "FLAG-ASF1A (HeLa cells stably expressing) (UniProt Q9Y294)",
  "experiment": "co-IP; precipitation by FLAG-ASF1A from cells expressing USP52 deletion mutants (Supplementary Fig. 3a; in vivo deubiquitination assay: RIPA buffer, anti-FLAG affinity gel)",
  "note": "No constants are given. Whether binding was seen depends on the method and setting. In cells and extracts the contact can be indirect. A result given as binding can be weak or reduced; the word gives no strength.",
  "data": [
    {"substance": "UCH domain deficient USP52 (USP52/ΔUCH) (from UniProt Q504Q3) (enzyme)", "values": [
      {"measurement": "binding", "value": "binds"}
    ]}
  ]
}
